According to paper PMC4641719:
These are yes or no findings as the source states them, for the method shown. Binding seen in cells or lysates may run through a third protein. Some results given as binding are weak or reduced against the parent protein; the word gives no strength.

By UniProt entry, the sequences of proteins in these tests, tags left out. Residues count along the entry.
UniProt Q9QUN7, residues 25-784: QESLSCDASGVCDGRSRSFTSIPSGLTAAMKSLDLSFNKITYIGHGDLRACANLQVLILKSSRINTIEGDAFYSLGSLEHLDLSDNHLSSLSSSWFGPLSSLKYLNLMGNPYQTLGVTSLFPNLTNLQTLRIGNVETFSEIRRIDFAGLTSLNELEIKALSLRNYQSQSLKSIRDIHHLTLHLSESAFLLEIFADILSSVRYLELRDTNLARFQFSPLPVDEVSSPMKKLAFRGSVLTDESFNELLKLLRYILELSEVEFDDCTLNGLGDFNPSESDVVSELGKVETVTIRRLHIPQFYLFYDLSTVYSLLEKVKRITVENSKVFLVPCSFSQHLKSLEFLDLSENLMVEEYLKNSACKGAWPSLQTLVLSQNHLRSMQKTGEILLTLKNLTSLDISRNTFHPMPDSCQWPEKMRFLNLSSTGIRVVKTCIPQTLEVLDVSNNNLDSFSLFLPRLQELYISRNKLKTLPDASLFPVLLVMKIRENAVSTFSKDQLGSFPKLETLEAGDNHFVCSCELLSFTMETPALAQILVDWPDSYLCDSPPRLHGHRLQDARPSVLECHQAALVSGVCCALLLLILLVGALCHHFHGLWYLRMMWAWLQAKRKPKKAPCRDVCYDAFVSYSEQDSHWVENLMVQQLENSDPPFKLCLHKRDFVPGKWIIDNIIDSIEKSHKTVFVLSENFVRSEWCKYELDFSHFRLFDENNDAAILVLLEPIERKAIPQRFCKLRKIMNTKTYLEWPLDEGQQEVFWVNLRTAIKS
UniProt P22366: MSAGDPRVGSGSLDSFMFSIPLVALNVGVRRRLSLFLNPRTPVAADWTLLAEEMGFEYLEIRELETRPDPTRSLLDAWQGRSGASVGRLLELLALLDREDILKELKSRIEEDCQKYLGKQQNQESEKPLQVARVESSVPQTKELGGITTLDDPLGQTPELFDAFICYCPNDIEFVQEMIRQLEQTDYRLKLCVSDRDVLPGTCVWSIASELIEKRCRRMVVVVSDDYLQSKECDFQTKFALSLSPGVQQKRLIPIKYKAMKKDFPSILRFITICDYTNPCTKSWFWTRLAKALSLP

Biological target: Toll-like Receptor 2 (mouse (endogenous in BALB/c splenic CD8+ T-cells)) (UniProt Q9QUN7)
Test: co-IP; lysates of purified mouse CD8+ T-cells (stimulated with plate-bound anti-CD3ε and CD28, control siRNA or TLR2 siRNA, with or without Ara-LAM 3 μg/mL for 24 hr); precipitated with anti-TLR2 or anti-MyD88 antibody, captured on Protein A-agarose, blots probed with anti-MyD88 or anti-IRAK1

MyD88 (from UniProt P22366 1-296)
binding: binds
